Results as given in patent publication US20220177596A1.
Results are given in words; binding and its absence hold for the method and conditions named. Some binding calls cover weakened binding; strength is not graded here.

B1: BI-mAb-B (antibody, human IgG1, kappa, L234A L235A, V domains shown)
VH: EVQLVESGGGLVKPGGSLRLSCAASGFTFSDYGMHWVRQAPGKGLEWVAYISSGNRIIYYADTVKGRFTISRDNAKNSLYLQMNSLRAEDTAVYYCARQDGYRYAMDYWGQGTLVTVSS
VL: DIVMTQSPDSLAVSLGEKVTINCKSSQSLLNSGNQKNYLTWHQQKPGQPPKLLIYWTSTRESGVPDRFSGSGSGTDFTLTISSLQAEDVAVYYCQNDYTYPLTFGGGTKVEIKR
B2: humanized Y1238 hz44 (hz-HC9 / hz-LC4), IgG1.3f (antibody, V domains shown)
VH: QVQLVQSGAEVVKPGASVKVSCKASGYAFTNYLIEWVRQRPGQGLEWMGVINPGSGGTNYNEKFKGRVTLTADKSSSTAYMQLSRLRSDDTAVYFCARSQLGRRFDYWGQGTTVTVSS
VL: DIQMTQSPSSLSASVGDRVTITCKASQDVRTGVAWYQQKPGQSPKLLIYSASYRNTGVPSRFSGSRSGTDFTFTISSLQAEDIAVYYCQQHYSPPYTFGGGTKVEIK
B3: humanized Y1238 hz45 (hz-HC9 / hz-LC5), IgG1.3f (antibody, V domains shown)
VH: QVQLVQSGAEVVKPGASVKVSCKASGYAFTNYLIEWVRQRPGQGLEWMGVINPGSGGTNYNEKFKGRVTLTADKSSSTAYMQLSRLRSDDTAVYFCARSQLGRRFDYWGQGTTVTVSS
VL: DIQMTQSPSSLSASVGDRVTITCKASQDVRTGVAWYQQKPGQAPKLLIYSASYRNTGVPSRFSGSRSGTDFTFTISSLQPEDIAVYYCQQHYSPPYTFGGGTKVEIK
B4: humanized Y1238 hz46 (hz-HC10 / hz-LC1), IgG1.3f (antibody, V domains shown)
VH: QVQLVQSGAEVKKPGASVKVSCKASGYAFTNYLIEWVRQRPGQGLEWMGVINPGSGGTNYNEKFKGRVTMTRDKSISTAYMELSRLRSDDTAVYYCARSQLGRRFDYWGQGTLVTVSS
VL: DIQMTQSPSSLSASVGDRVTITCKASQDVRTGVAWYQQKPGKAPKLLIYSASYRNTGVPSRFSGSGSGTDFTFTISSLQPEDIATYYCQQHYSPPYTFGGGTKVEIK
B5: humanized Y1238 hz47 (hz-HC10 / hz-LC2), IgG1.3f (antibody, V domains shown)
VH: QVQLVQSGAEVKKPGASVKVSCKASGYAFTNYLIEWVRQRPGQGLEWMGVINPGSGGTNYNEKFKGRVTMTRDKSISTAYMELSRLRSDDTAVYYCARSQLGRRFDYWGQGTLVTVSS
VL: DIQMTQSPSSLSASVGDRVTITCKASQDVRTGVAWYQQKPGKAPKLLIYSASYRNTGVPSRFSGSRSGTDFTFTISSLQPEDIATYYCQQHYSPPYTFGGGTKVEIK
B6: humanized Y1238 hz48 (hz-HC10 / hz-LC3), IgG1.3f (antibody, V domains shown)
VH: QVQLVQSGAEVKKPGASVKVSCKASGYAFTNYLIEWVRQRPGQGLEWMGVINPGSGGTNYNEKFKGRVTMTRDKSISTAYMELSRLRSDDTAVYYCARSQLGRRFDYWGQGTLVTVSS
VL: DIQMTQSPSSLSASVGDRVTITCKASQDVRTGVAWYQQKPGQSPKLLIYSASYRNTGVPSRFSGSRSGTDFTFTISSLQPEDIAVYYCQQHYSPPYTFGGGTKVEIK
B7: humanized Y1238 hz49 (hz-HC10 / hz-LC4), IgG1.3f (antibody, V domains shown)
VH: QVQLVQSGAEVKKPGASVKVSCKASGYAFTNYLIEWVRQRPGQGLEWMGVINPGSGGTNYNEKFKGRVTMTRDKSISTAYMELSRLRSDDTAVYYCARSQLGRRFDYWGQGTLVTVSS
VL: DIQMTQSPSSLSASVGDRVTITCKASQDVRTGVAWYQQKPGQSPKLLIYSASYRNTGVPSRFSGSRSGTDFTFTISSLQAEDIAVYYCQQHYSPPYTFGGGTKVEIK
B8: humanized Y1238 hz50 (hz-HC10 / hz-LC5), IgG1.3f (antibody, V domains shown)
VH: QVQLVQSGAEVKKPGASVKVSCKASGYAFTNYLIEWVRQRPGQGLEWMGVINPGSGGTNYNEKFKGRVTMTRDKSISTAYMELSRLRSDDTAVYYCARSQLGRRFDYWGQGTLVTVSS
VL: DIQMTQSPSSLSASVGDRVTITCKASQDVRTGVAWYQQKPGQAPKLLIYSASYRNTGVPSRFSGSRSGTDFTFTISSLQPEDIAVYYCQQHYSPPYTFGGGTKVEIK
B9: humanized Y1238 hz51 (hz-HC11 / hz-LC1), IgG1.3f (antibody, V domains shown)
VH: QVQLVQSGAEVKKPGASVKVSCKASGYAFTNYLIEWVRQRPGQGLEWMGVINPGSGGTNYNEKFKGRVTMTRDKSSSTAYMELSRLRSDDTAVYFCARSQLGRRFDYWGQGTLVTVSS
VL: DIQMTQSPSSLSASVGDRVTITCKASQDVRTGVAWYQQKPGKAPKLLIYSASYRNTGVPSRFSGSGSGTDFTFTISSLQPEDIATYYCQQHYSPPYTFGGGTKVEIK
B10: humanized Y1238 hz52 (hz-HC11 / hz-LC2), IgG1.3f (antibody, V domains shown)
VH: QVQLVQSGAEVKKPGASVKVSCKASGYAFTNYLIEWVRQRPGQGLEWMGVINPGSGGTNYNEKFKGRVTMTRDKSSSTAYMELSRLRSDDTAVYFCARSQLGRRFDYWGQGTLVTVSS
VL: DIQMTQSPSSLSASVGDRVTITCKASQDVRTGVAWYQQKPGKAPKLLIYSASYRNTGVPSRFSGSRSGTDFTFTISSLQPEDIATYYCQQHYSPPYTFGGGTKVEIK
B11: humanized Y1238 hz53 (hz-HC11 / hz-LC3), IgG1.3f (antibody, V domains shown)
VH: QVQLVQSGAEVKKPGASVKVSCKASGYAFTNYLIEWVRQRPGQGLEWMGVINPGSGGTNYNEKFKGRVTMTRDKSSSTAYMELSRLRSDDTAVYFCARSQLGRRFDYWGQGTLVTVSS
VL: DIQMTQSPSSLSASVGDRVTITCKASQDVRTGVAWYQQKPGQSPKLLIYSASYRNTGVPSRFSGSRSGTDFTFTISSLQPEDIAVYYCQQHYSPPYTFGGGTKVEIK
B12: humanized Y1238 hz54 (hz-HC11 / hz-LC4), IgG1.3f (antibody, V domains shown)
VH: QVQLVQSGAEVKKPGASVKVSCKASGYAFTNYLIEWVRQRPGQGLEWMGVINPGSGGTNYNEKFKGRVTMTRDKSSSTAYMELSRLRSDDTAVYFCARSQLGRRFDYWGQGTLVTVSS
VL: DIQMTQSPSSLSASVGDRVTITCKASQDVRTGVAWYQQKPGQSPKLLIYSASYRNTGVPSRFSGSRSGTDFTFTISSLQAEDIAVYYCQQHYSPPYTFGGGTKVEIK
B13: humanized Y1238 hz55 (hz-HC11 / hz-LC5), IgG1.3f (antibody, V domains shown)
VH: QVQLVQSGAEVKKPGASVKVSCKASGYAFTNYLIEWVRQRPGQGLEWMGVINPGSGGTNYNEKFKGRVTMTRDKSSSTAYMELSRLRSDDTAVYFCARSQLGRRFDYWGQGTLVTVSS
VL: DIQMTQSPSSLSASVGDRVTITCKASQDVRTGVAWYQQKPGQAPKLLIYSASYRNTGVPSRFSGSRSGTDFTFTISSLQPEDIAVYYCQQHYSPPYTFGGGTKVEIK
B14: chimeric Y1238 supernatant (Sup 56; HC-Chim / LC-Chim) (antibody)
VH: QVQLQQSGAELVRPGTSVKVSCKASGYAFTNYLIEWVKQRPGQGLEWIGVINPGSGGTNYNEKFKGKATLTADKSSSTAYMQLSSLTSDDSAVYFCARSQLGRRFDYWGQGTTLTVSS
light: DIVMTQSHKFMSTSVGDRVSITCKASQDVRTGVAWYQQKPGQSPKLLIYSASYRNTGVPDRFTGSRSGTDFTFTISSVQAEDLAVYYCQQHYSPPYTFGGGTKLEIKRTVAAPSVFIFPPSDEQLKSGTASVVCLLNNFYPREAKVQWKVDNALQSGNSQESVTEQDSKDSTYSLSSTLTLSKADYEKHKVYACEVTHQGLSSPVTKSFNRGEC
B15: purified Y1238-chimeric IgG1 antibody (antibody)
VH: QVQLQQSGAELVRPGTSVKVSCKASGYAFTNYLIEWVKQRPGQGLEWIGVINPGSGGTNYNEKFKGKATLTADKSSSTAYMQLSSLTSDDSAVYFCARSQLGRRFDYWGQGTTLTVSS
light: DIVMTQSHKFMSTSVGDRVSITCKASQDVRTGVAWYQQKPGQSPKLLIYSASYRNTGVPDRFTGSRSGTDFTFTISSVQAEDLAVYYCQQHYSPPYTFGGGTKLEIKRTVAAPSVFIFPPSDEQLKSGTASVVCLLNNFYPREAKVQWKVDNALQSGNSQESVTEQDSKDSTYSLSSTLTLSKADYEKHKVYACEVTHQGLSSPVTKSFNRGEC

molecular target: human-CD40 monomer (human) (UniProt P25942); assay: SPR

Row | Binder | binding
1 | B1 | binds

molecular target: human-CD40 monomer (human) (UniProt P25942); assay: SPR 2 pt screen

Row | Binder | binding
2 | B2 | binds
3 | B3 | binds
4 | B4 | binds
5 | B5 | binds
6 | B6 | binds
7 | B7 | binds
8 | B8 | binds
9 | B9 | binds
10 | B10 | binds
11 | B11 | binds
12 | B12 | binds
13 | B13 | binds
14 | B14 | binds
15 | B15 | binds
